Screening data, single-dose tests

Protein sequences, listed by entry. Tags and fused reporters are not part of them.
UniProt P9WPC5, whole entry: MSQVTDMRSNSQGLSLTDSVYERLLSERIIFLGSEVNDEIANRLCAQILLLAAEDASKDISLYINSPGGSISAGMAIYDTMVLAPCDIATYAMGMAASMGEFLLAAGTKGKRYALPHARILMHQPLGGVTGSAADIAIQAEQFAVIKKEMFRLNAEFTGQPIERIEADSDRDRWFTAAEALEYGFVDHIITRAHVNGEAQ
UniProt P9WPC3, whole entry partner: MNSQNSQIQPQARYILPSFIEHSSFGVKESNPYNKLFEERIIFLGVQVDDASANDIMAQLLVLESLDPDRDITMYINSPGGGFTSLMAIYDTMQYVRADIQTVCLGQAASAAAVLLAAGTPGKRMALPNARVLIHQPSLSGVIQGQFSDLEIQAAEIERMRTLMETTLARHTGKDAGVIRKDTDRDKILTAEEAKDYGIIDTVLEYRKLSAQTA
UniProt I6X8D2, whole entry: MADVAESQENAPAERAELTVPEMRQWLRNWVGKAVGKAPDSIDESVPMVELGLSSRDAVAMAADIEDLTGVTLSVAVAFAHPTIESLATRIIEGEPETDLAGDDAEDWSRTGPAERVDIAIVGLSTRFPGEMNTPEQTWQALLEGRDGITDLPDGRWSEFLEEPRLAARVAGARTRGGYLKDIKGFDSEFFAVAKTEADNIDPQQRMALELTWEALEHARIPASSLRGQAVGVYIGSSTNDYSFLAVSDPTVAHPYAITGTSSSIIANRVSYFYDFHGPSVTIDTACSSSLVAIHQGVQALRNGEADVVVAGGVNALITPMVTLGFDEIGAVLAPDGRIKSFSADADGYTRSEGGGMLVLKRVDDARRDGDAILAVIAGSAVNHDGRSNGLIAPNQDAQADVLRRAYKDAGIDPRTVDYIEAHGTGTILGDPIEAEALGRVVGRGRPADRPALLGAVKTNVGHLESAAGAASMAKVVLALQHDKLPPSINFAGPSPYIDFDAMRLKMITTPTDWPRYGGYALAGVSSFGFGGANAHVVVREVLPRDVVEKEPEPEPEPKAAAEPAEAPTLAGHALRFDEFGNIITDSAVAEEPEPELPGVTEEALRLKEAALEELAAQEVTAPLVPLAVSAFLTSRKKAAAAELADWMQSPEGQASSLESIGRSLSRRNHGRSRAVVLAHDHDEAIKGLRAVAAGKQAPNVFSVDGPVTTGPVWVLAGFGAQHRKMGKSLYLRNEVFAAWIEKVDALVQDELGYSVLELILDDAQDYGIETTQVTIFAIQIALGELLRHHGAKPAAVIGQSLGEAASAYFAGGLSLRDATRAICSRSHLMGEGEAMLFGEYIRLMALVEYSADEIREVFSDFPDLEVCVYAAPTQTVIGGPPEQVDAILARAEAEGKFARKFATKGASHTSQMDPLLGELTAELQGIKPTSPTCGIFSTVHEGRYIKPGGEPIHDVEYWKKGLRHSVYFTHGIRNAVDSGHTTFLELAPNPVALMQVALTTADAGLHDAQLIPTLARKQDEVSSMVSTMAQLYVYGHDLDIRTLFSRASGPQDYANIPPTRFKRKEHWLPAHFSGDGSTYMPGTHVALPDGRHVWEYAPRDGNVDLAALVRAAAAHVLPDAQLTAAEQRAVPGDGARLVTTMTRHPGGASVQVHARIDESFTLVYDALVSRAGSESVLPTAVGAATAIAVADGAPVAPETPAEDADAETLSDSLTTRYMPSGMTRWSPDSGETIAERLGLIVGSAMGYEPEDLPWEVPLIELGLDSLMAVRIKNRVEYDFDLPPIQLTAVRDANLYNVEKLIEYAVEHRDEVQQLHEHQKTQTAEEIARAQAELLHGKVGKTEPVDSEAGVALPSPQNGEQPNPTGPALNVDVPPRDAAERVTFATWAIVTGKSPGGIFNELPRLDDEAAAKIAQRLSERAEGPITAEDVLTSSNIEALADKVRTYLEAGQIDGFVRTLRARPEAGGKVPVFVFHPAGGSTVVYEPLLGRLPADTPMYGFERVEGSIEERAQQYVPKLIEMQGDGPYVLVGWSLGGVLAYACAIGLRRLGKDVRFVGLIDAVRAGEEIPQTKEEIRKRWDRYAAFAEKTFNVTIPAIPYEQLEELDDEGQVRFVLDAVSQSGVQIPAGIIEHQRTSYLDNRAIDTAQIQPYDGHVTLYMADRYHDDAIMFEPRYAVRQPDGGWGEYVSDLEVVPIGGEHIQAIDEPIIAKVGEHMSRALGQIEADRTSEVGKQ

The filed quantity is “Percent Effect” (%). The controls that fix the scale are not given in the record; negative values are as filed. This is an unselected part of the compounds tested.

ClpP1P2: 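Protease assay of ClpP1P2, read by the AMC dye that it sets free. Target: ClpP1P2, Mycobacterium tuberculosis (UniProt P9WPC5 and UniProt P9WPC3). Tested at 50 µM. Direction is inferred from only a few compounds that gave an IC50; most scored high, so higher reads as stronger inhibition. Most other retested compounds had strongly negative values. Of about 69,000 compounds tested this way, about 10 (0.015%) reached 50% or more in at least one test.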
Pks13 thioesterase: 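Enzyme assay of the thioesterase domain of polyketide synthase 13; the read-out is not stated. Target: Polyketide synthase Pks13, Mycobacterium tuberculosis (UniProt I6X8D2). Tested at 30 µM. Higher reads as stronger inhibition (inferred from which compounds were picked for retests). Of about 67,000 compounds tested this way, about 300 (0.46%) reached 50% or more in at least one test.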

O=C(c1cnccn1)N1CCC(Cc2cnc3[nH]ccc3c2)CC1 read ClpP1P2: -9.937%; Pks13 thioesterase: -13.76%. Result for O=C1CSC(c2ccncc2)c2c[nH]nc2N1 (stereo not given) was ClpP1P2: 8.737%; Pks13 thioesterase: -41.03%. CN1[C@@H](C(=O)NCC2CC2)C[C@@H]2CN(c3ncccn3)C[C@@H]21 gave ClpP1P2: 3.658%; Pks13 thioesterase: -28.41%. Result for Cc1ccccc1-n1cc(-c2ccnc(N3CCCC(CN)C3)n2)cn1 (stereo not given) was ClpP1P2: -26.29%; Pks13 thioesterase: -2.67%. O=C(NCc1ccc(-n2cncn2)nc1)c1ccc2c(c1)CCC2 gave ClpP1P2: -24.71%; Pks13 thioesterase: -2.941%. Result for CCS(=O)(=O)N(C)C1CCN(C(=O)c2cccc(Cl)c2)CC1 was ClpP1P2: 0.5144%; Pks13 thioesterase: -21.64%.

With Cc1cc(Br)ccc1C(=O)N(C)CCNS(C)(=O)=O the screen gave ClpP1P2: -5.511%; Pks13 thioesterase: -29.81%. COc1cc(N(C)Cc2cc(C(C)(C)C)n[nH]2)ncn1 gave ClpP1P2: 13.62%; Pks13 thioesterase: -5.558%. For c1ccc2c(c1)CC(Cc1cc(N3CCCC3)cnn1)CO2 (stereo not given) the result was ClpP1P2: -5.48%; Pks13 thioesterase: -27.1%. NC(=O)C1(c2cnccn2)CCCN1Cc1ccccn1 (stereo not given) read ClpP1P2: -2.953%. Result for CC(C)n1ccnc1CN1CCCN(C(=O)c2cnc[nH]2)CC1 was ClpP1P2: -30.62%; Pks13 thioesterase: -10.02%. For CN(CC(=O)N(CCC#N)c1ccccc1)C1CCc2ccccc21 (stereo not given) the result was ClpP1P2: -9.588%; Pks13 thioesterase: -2.534%.

For Cc1noc(COCC(=O)N2CCCC(c3nccs3)C2)n1 (stereo not given) the result was ClpP1P2: 1.195%; Pks13 thioesterase: -23.2%. CCOCC1CN(C(=O)c2cccn2C)Cc2cnn(CC3CC3)c21 (stereo not given) read ClpP1P2: -15.45%; Pks13 thioesterase: -11.27%. Result for CNC(=O)c1ccc(C(=O)N2CCCCC2Cn2cc(C)cn2)cn1 (stereo not given) was ClpP1P2: -6.858%; Pks13 thioesterase: -52%. CS(=O)(=O)NCC(=O)NCc1cccnc1-n1cnc2ccccc21 gave ClpP1P2: 8.14%; Pks13 thioesterase: 2.431%. With FC1(F)CCN(Cc2cccnc2)CC12CCN(c1ccccn1)C2 (stereo not given) the screen gave ClpP1P2: 0.5858%; Pks13 thioesterase: -26.64%. Result for Cc1ccc(C(=O)NCCNC(=O)N(C)C(C)c2ccccn2)cc1 (stereo not given) was ClpP1P2: -2.14%; Pks13 thioesterase: 8.884%.

Cc1ccc(C)c(Sc2nccn(C)c2=O)c1 gave ClpP1P2: -1.472%; Pks13 thioesterase: -9.038%. Result for CS(=O)(=O)NC(=O)CCc1cccc(OC2CCCC2)c1 was ClpP1P2: -7.609%; Pks13 thioesterase: -9.217%. Result for Cc1cc(N2CCOC(c3ccncn3)C2)ncn1 (stereo not given) was ClpP1P2: -3.332%; Pks13 thioesterase: -0.2401%. NC(=O)CS(=O)(=O)Cc1ccc(OCc2ccc(F)cc2)cc1 read ClpP1P2: 2.41%; Pks13 thioesterase: -32.91%. O=C(c1ccco1)N1CCc2c(nc(-c3ccncc3)[nH]c2=O)C1 read ClpP1P2: 1.159%; Pks13 thioesterase: 22.51%. Result for NC(=O)NCC(=O)N1C[C@H]2CC[C@@H]1CN(C1Cc3ccccc3C1)C2 was ClpP1P2: 13.54%; Pks13 thioesterase: -8.024%.

With CCOC(=O)Cn1ccc2cc(NC(=O)N3CCSCC3)ccc21 the screen gave ClpP1P2: 5.75%; Pks13 thioesterase: -0.01659%. CC(C)c1nc(C2CCCN2Cc2nccn2CC(F)(F)F)no1 (stereo not given) read ClpP1P2: -17.47%; Pks13 thioesterase: -19.62%.

The last 3 entries again:

With NC(=O)NCC(=O)N1C[C@H]2CC[C@@H]1CN(C1Cc3ccccc3C1)C2 the screen gave ClpP1P2: 13.54%; Pks13 thioesterase: -8.024%.
With CCOC(=O)Cn1ccc2cc(NC(=O)N3CCSCC3)ccc21 the screen gave ClpP1P2: 5.75%; Pks13 thioesterase: -0.01659%.
With CC(C)c1nc(C2CCCN2Cc2nccn2CC(F)(F)F)no1 (stereo not given) the screen gave ClpP1P2: -17.47%; Pks13 thioesterase: -19.62%.

Measurements from “University of Dundee, Small-Polar-MMV Screening Library” (2021), ChEMBL document CHEMBL3988442.